According to PubChem BioAssay AID2551 (National Center for Advancing Translational Sciences (NCATS), 2010):
About 17,000 (5.5%) of roughly 310,000 compounds were called active. Inconclusive means that the source gave no clear call. Such entries were picked first, then a sample of the others. The call rests on the fitted dose curve; in most records, active means well fitted inhibition curve with a large enough effect; inconclusive means small, poorly fitted or top-dose-only effect, or effect the other way; inactive means no such curve, though single readings can be large or run the other way. Potencies of inconclusive entries are doubtful fits and often do not repeat.

Chains of the proteins cited; added tags and fusions are not shown. Lines headed by an entry give the natural chain unless they say otherwise; changes in a name come on top.
UniProt P51450: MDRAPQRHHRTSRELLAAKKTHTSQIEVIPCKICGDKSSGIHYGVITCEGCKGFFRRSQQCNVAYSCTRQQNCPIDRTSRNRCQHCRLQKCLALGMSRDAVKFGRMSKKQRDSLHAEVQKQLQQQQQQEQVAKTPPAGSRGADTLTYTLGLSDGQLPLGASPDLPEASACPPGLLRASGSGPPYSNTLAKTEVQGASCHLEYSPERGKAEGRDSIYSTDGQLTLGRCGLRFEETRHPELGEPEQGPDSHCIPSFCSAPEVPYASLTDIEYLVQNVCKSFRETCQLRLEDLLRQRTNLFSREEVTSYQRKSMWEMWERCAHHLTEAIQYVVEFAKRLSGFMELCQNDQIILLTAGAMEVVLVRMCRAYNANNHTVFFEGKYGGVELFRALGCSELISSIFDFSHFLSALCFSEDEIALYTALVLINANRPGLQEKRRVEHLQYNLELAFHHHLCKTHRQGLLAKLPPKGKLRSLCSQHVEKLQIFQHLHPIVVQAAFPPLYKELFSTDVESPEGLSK

Each compound was assayed against Nuclear receptor ROR-gamma (Mus musculus) (UniProt P51450) (assay: qHTS for inhibitors of ROR gamma transcriptional activity). Details: Drosophila S2 Gal4-RORgamma UAS-luciferase reporter, 20 h; activity change, negative = inhibition: at 53.6 µM (top of the series).
In short: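 Compounds are pin-transferred onto Drosophila Schneider cells expressing a copper-inducible Gal4–ROR gamma transactivation domain fusion. After 1 hr, copper sulfate is added to 700 uM final; luciferase is read 20 hr later.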
Further: nearly all actives have a fitted effect of over 60% in size.
On the % scale 0 is the no-effect control and ±100 the full control effect; potency means the concentration at half of the fitted maximal effect.

| Structure (SMILES) | Potency | activity change, negative = inhibition |
| --- | --- | --- |
| COc1cc(/C=N/O)cc(Br)c1OCc1cccc(Cl)c1 | active: 10 µM | – |
| Cc1ccc(S(=O)(=O)Nc2ccc(Cl)cc2)cc1NC(=O)c1cc2c(s1)CCCC2 | inconclusive: 15.8 µM [activator, single point] | – |
| CCOc1cc(/C=C2\SC(=S)N(Nc3ccccc3)C2=O)ccc1O | inconclusive: 15.8 µM [activator, single point] | – |
| c1ccc(SCc2nc(-c3ccncc3)no2)cc1 | inconclusive: 11.2 µM [activator, partial curve, poor fit] | – |
| ONCc1ccccc1 | – | inactive: -3.44% |
| Cc1ccc(OCC(=O)NCc2ccco2)cc1C | inconclusive: 22.4 µM [inhibitor, single point] | – |
| O=C(Cc1ccccc1)NNc1ccc2ccccc2c1 | inconclusive: 15.8 µM [activator, single point] | – |
| CC(C)(O)C#Cc1ccc(C(=O)N2CCN(c3ccccc3)CC2)cc1 | – | inactive: -1.17% |
| N#CC1=C(N)SC(N)=C(C#N)C1c1c(Cl)cccc1Cl | active: 8.91 µM | – |
| O=C(CN1CCN(c2ccccc2)CC1)NCc1ccc(F)cc1 | inconclusive: 35.5 µM [activator, single point] | – |
| CC(=O)[C@H](CC(C)C)NC(=O)[C@@H](CC(C)C)NC(=O)[C@H](CC(C)C)NC(=O)OCc1ccccc1 | inconclusive: 0.562 µM [inhibitor, full curve, poor fit] | – |
| CSc1nc2ccc(NC(=O)CSc3nnc(N)s3)cc2s1 | inconclusive: 11.2 µM [activator, partial curve, poor fit] | – |
| Cc1nn(Cc2ccccc2)c(=O)c2nn(-c3ccc(Cl)cc3)c(C)c12 | inconclusive: 8.91 µM [activator, partial curve] | – |
| CC(C)=CCC/C(C)=C/C=N/NC(=O)c1ccccc1[N+](=O)[O-] | active: 6.31 µM | – |
| Cn1cnc2c1c(=O)n(Cc1ccccc1)c(=O)n2C | – | inactive: -2.37% |
| Cc1occc1C(=O)N/N=C/C(Br)=C\c1ccccc1 | – | inactive: -38.5% |
| CCc1c(C)[nH]n(-c2nc(-c3ccccc3)cs2)c1=O | inconclusive: 11.2 µM [inhibitor, single point] | – |
| COc1ccccc1C1(O)CCN(CC(=O)Nc2nc(-c3ccccc3)cs2)CC1 | inconclusive: 25.1 µM [inhibitor, single point] | – |
| Cc1ccccc1Nc1cc(C)c2c(O)cccc2n1 | inconclusive: 10 µM [activator, partial curve] | – |
| CCOC(=O)C1=C(c2ccccc2)N(C)C(=O)NC1c1ccc(OC(F)F)c(OC)c1 (configuration not stated) | inconclusive: 25.1 µM [activator, single point] | – |
| Cc1cccc(C)c1OCc1cc(C(=O)N(C)Cc2nc3ccccc3[nH]2)no1 | inconclusive: 22.4 µM [activator, single point] | – |
| N#Cc1ccccc1CN1C(=O)S/C(=C/c2cccn2-c2ccc(C(=O)O)cc2)C1=O | – | inactive: 0.391% |
| CC(c1ccco1)N(C(=O)c1ccc(Cl)c([N+](=O)[O-])c1)c1ccccn1 (configuration not stated) | – | inactive: -26.5% |
| CCNC(=O)Oc1ccc(-c2csnn2)cc1 | – | inactive: -3.76% |

| Structure (SMILES) | Potency | activity change, negative = inhibition |
| --- | --- | --- |
| COc1cc(C(=O)NC(=S)N2CCCCCC2)cc(OC)c1OC | active: 0.891 µM | – |
| CCN(CC)S(=O)(=O)c1cc(NC(=O)CN2C(=O)NC(C)(c3ccccc3)C2=O)ccc1C (configuration not stated) | inconclusive: 15.8 µM [activator, single point] | – |
| Cc1ccc(-n2nc3ccc(N)cc3n2)cc1 | inconclusive: 5.62 µM [inhibitor, single point] | – |
| Cc1ccc(S(=O)(=O)N2CCC(=O)N(CCOCc3ccc(Cl)cc3)CC2)cc1 | inconclusive: 25.1 µM [activator, single point] | – |
| N#C/C(=C\c1ccc(Sc2ccc(Cl)cc2)o1)c1nc2ccccc2[nH]1 | inconclusive: 35.5 µM [inhibitor, single point] | – |
| O=C(N/N=C\c1ccc([N+](=O)[O-])s1)C1COc2ccccc2O1 (configuration not stated) | active: 3.55 µM | – |
| CC1=C(C(=O)Nc2ccccc2)C(c2ccc(C)cc2)N=C(Nc2nc3ccccc3o2)N1 (configuration not stated) | inconclusive: 17.8 µM [inhibitor, single point] | – |
| CCCn1c(=O)c(C(=O)NCCc2ccc(OC)cc2)c(O)c2ccccc21 | inconclusive: 35.5 µM [inhibitor, single point] | – |
| Cc1cccc(NC(=O)CN2C(=O)N/C(=C/c3ccc(C)o3)C2=O)c1 | inconclusive: 25.1 µM [inhibitor, single point] | – |
| COc1ccc2nc(N3C(=O)CC(Cc4cc(C)cc(C)c4)C3=O)sc2c1 (configuration not stated) | inconclusive: 14.1 µM [activator, single point] | – |
| O=C(NCC(c1cccnc1)N1CCOCC1)c1cccs1 (configuration not stated) | inconclusive: 12.6 µM [activator, single point] | – |
| CCCC1CC(C(=O)N[C@H](C(C)O)C2OC(SC)[C@@H](O)C(O)C2O)N(C)C1 (some centres not stated) | – | inactive: 7.39% |
| Cc1cc(N/N=C/c2cccc(Br)c2)nc2ccccc12 | active: 11.2 µM | – |
| Cc1ccnc(NC(=O)c2ccc([N+](=O)[O-])o2)c1 | inconclusive: 35.5 µM [inhibitor, single point] | – |
| Cc1ccc(NC(=O)C(C)OC(=O)c2ccc(NS(=O)(=O)c3ccc(F)c(F)c3)cc2)cc1 (configuration not stated) | inconclusive: 22.4 µM [activator, single point] | – |
| Cn1cc(CNCc2ccc(-n3cccn3)cc2)c(-c2ccccc2F)n1 | inconclusive: 31.6 µM [inhibitor, single point] | – |
| Nc1nn(-c2ccccc2)c2ccc([N+](=O)[O-])cc12 | inconclusive: 35.5 µM [activator, partial curve] | – |
| Cc1cc(=O)[nH]c2cc(O)ccc12 | – | inactive: 26.9% |
| Cc1cccc(NC(=O)CCCn2c(=S)[nH]c3ccccc3c2=O)c1 | active: 11.2 µM | – |
| CCCCCCn1c(=O)c(-c2ccccc2)c(O)c2ccccc21 | – | inactive: 1.05% |
| COc1ccc(NS(=O)(=O)c2ccc(-c3coc(C)n3)cc2)cc1OC | inconclusive: 2.82 µM [inhibitor, partial curve] | – |
| O=C(Nc1nccs1)c1csc2c1CCCC2 | inconclusive: 8.91 µM [inhibitor, partial curve, poor fit] | – |
| CCOC(=O)c1ccc(NC(=O)c2cccc(S(=O)(=O)N3CCOCC3)c2)cc1 | inconclusive: 11.2 µM [activator, single point] | – |
| O=C(CSc1nnc2c(n1)[nH]c1ccc(S(=O)(=O)N3CCOCC3)cc12)Nc1ccccc1Cl | – | inactive: 15.5% |

| Structure (SMILES) | Potency | activity change, negative = inhibition |
| --- | --- | --- |
| COc1cc(-c2cc(C(F)(F)F)n3ncc(C(=O)O)c3n2)cc(OC)c1OC | – | inactive: -2.73% |
| CC1=C(C(=O)OCc2ccccc2)N2C(=O)[C@@H](NC(=O)COc3ccccc3)[C@H]2SC1 | inconclusive: 35.5 µM [activator, single point] | – |
| C/C(=N\NC(N)=S)c1ccc(Cl)s1 | active: 1.41 µM | – |
| COc1cc([N+](=O)[O-])cc(/C=N/NC(=O)CC#N)c1O | – | inactive: -27.2% |
| CCC(=O)NC(=S)Nc1ccc(-c2nc3ccc(C)cc3s2)cc1 | active: 1.12 µM | – |
| O=C1C=C(Nc2ccc(O)cc2)CC(c2ccco2)C1 (configuration not stated) | inconclusive: 1.78 µM [activator, partial curve, poor fit] | – |
| FC(F)(F)c1cc(-c2ccccc2)nc(NCC2CCCO2)n1 (configuration not stated) | – | inactive: 20% |
| Cc1ccc(Cl)cc1NC(=S)N(Cc1cccnc1)Cc1ccccc1Cl | inconclusive: 31.6 µM [inhibitor, single point] | – |
| CCN(C(=O)c1ccc(Cl)c([N+](=O)[O-])c1)c1ccccc1 | inconclusive: 6.31 µM [activator, single point] | – |
| CCc1ccc(NC(=S)NC2CC3CCCC(C2)N3Cc2cccs2)cc1 (configuration not stated) | active: 2 µM | – |
| Fc1ccccc1NC(=S)NCc1ccc2c(c1)OCO2 | inconclusive: 20 µM [inhibitor, single point] | – |
| CC1(C)Cc2c(cnn2-c2ccccc2)C(NC(=O)CCCN2CCCC2=O)C1 (configuration not stated) | – | inactive: 2.87% |
| Cc1ccccc1NS(=O)(=O)c1cc(C(=O)NCCSC2CCCCC2)ccc1C | inconclusive: 35.5 µM [activator, single point] | – |
| COc1ccccc1C(=O)Nc1cccc(-c2cn3ccsc3n2)c1 | inconclusive: 10 µM [activator, single point] | – |
| Cc1cccc2nc(Cn3c(=O)n(CCCC(=O)NCc4ccco4)c(=O)c4ccccc43)cc(=O)n12 | inconclusive: 3.16 µM [activator, full curve] | – |
| O=C1CC(=O)N(CCc2ccccc2)C(=O)N1CCc1ccccc1 | inconclusive: 35.5 µM [inhibitor, single point] | – |
| CCOc1ccc(/C=C2/C(=O)N(c3ccc(OC)cc3)C(=S)N2CC(=O)OC)cc1OCC | inconclusive: 3.98 µM [activator, single point] | – |
| Fc1ccc(-n2c(Cn3nnc4ccccc43)n[nH]c2=S)cc1 | inconclusive: 11.2 µM [inhibitor, single point] | – |
| COc1cc(NC(=O)c2cccs2)c(C(=O)OCC(=O)c2cc(C)n(-c3ccccc3)c2C)cc1OC | inconclusive: 0.316 µM [inhibitor, single point] | – |
| COc1ccccc1/C=C/CN1CCC(n2nccc2NC(=O)C2CC2)CC1 | – | inactive: -20.3% |
| Cc1cccc(Cl)c1NC(=S)NN | active: 5.01 µM | – |
| C=C1CCN(Cc2ccc(OC)cc2)S(=O)(=O)c2ccccc21 | inconclusive: 35.5 µM [activator, single point] | – |
| COc1ccc(CNc2cc(C)ccc2C)c(OC)c1OC | – | inactive: -20.7% |
| Cc1ccccc1Nc1nc(-c2sc(NC(=O)c3ccccc3)nc2C)cs1 | inconclusive: 35.5 µM [inhibitor, single point] | – |

Retrieved by structure from the list above, 5 records:

| Structure (SMILES) | Potency | activity change, negative = inhibition |
| --- | --- | --- |
| O=C1CC(=O)N(CCc2ccccc2)C(=O)N1CCc1ccccc1 | inconclusive: 35.5 µM [inhibitor, single point] | – |
| CC1(C)Cc2c(cnn2-c2ccccc2)C(NC(=O)CCCN2CCCC2=O)C1 (configuration not stated) | – | inactive: 2.87% |
| CC1=C(C(=O)OCc2ccccc2)N2C(=O)[C@@H](NC(=O)COc3ccccc3)[C@H]2SC1 | inconclusive: 35.5 µM [activator, single point] | – |
| CCN(C(=O)c1ccc(Cl)c([N+](=O)[O-])c1)c1ccccc1 | inconclusive: 6.31 µM [activator, single point] | – |
| COc1cc(NC(=O)c2cccs2)c(C(=O)OCC(=O)c2cc(C)n(-c3ccccc3)c2C)cc1OC | inconclusive: 0.316 µM [inhibitor, single point] | – |
